Results deposited as PubChem BioAssay AID504808 (Drosophila RNAi Screening Center, 2011).

Screen: 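Fly genes required to hold E2F transcription in check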 (primary screen)
Cells: Drosophila S2 cells
Knock-down reagent: long dsRNA against Drosophila genes
Measurement: 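Dual luciferase plate measurements; E2F-specific signal taken as firefly over Renilla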
Direction: E2F firefly: higher = more E2F reporter activity; Renilla normaliser: higher = more normaliser reporter signal
Call rule: 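a knock-down counted as active when the firefly/Renilla E2F signal rose above 50%, a threshold chosen arbitrarily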
The screen tested about 21,000 reagents; below is a random part of those with a known target gene and a result. In the full data, 18 (0.084%) were called active. 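Raw counts without plate normalisation, one of two replicates; the ratio scores behind the calls were not deposited.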 Names joined by + are all predicted targets of the reagent. Not stated in the record: the amount of reagent, the time to read-out.

| target | PubChem SID | E2F firefly, rep 1 | Renilla normaliser, rep 1 | Call |
| --- | --- | --- | --- | --- |
| CG17739 | SID104186481 | 3137 | 217 | inactive |
| CG9815 | SID104184359 | 99535 | 4336 | inactive |
| Oatp33Eb (Organic anion transporting polypeptide 33Eb) | SID104182747 | 1.17e5 | 4506 | inactive |
| wuho | SID104197893 | 97911 | 4810 | inactive |
| Orc5 (Origin recognition complex subunit 5) | SID104183182 | 99902 | 3811 | inactive |
| CG15096 | SID104186317 | 71411 | 3223 | inactive |
| GlcAT-S (Glucuronyltransferase S) | SID104182523 | 85401 | 3779 | inactive |
| Rpp30 (RNaseP protein p30) | SID104180112 | 95686 | 3784 | inactive |
| Tsp42Eo (Tetraspanin 42Eo) | SID104185976 | 1.50e5 | 5343 | inactive |
| bb8 (big bubble 8) | SID104195370 | 1.13e5 | 6437 | inactive |
| CG7829 | SID104196114 | 1.38e5 | 7722 | inactive |
| santa-maria | SID104180786 | 1.23e5 | 6524 | inactive |
| santa-maria | SID104181972 | 86482 | 3810 | inactive |
| kek5 (kekkon 5) | SID104199230 | 1.36e5 | 7232 | inactive |
| Ssrp (Structure specific recognition protein) | SID104184450 | 70504 | 3324 | inactive |
| CG15252 | SID104197773 | 1.20e5 | 5416 | inactive |
| Ilp8 (Insulin-like peptide 8) | SID104189868 | 1.51e5 | 7213 | inactive |
| hiw (highwire) | SID104200130 | 1.16e5 | 6689 | inactive |
| hiw (highwire) | SID104200131 | 1.31e5 | 6656 | inactive |
| p130CAS | SID104187654 | 1.43e5 | 4040 | inactive |
| p130CAS | SID104188049 | 65782 | 3852 | inactive |
| COX5BL (Cytochrome c oxidase subunit 5B-like) | SID104181915 | 1.58e5 | 5693 | inactive |
| Spn27A (Serpin 27A) | SID104183400 | 1.56e5 | 5206 | inactive |
| Spn100A (Serpin 100A) | SID104194388 | 1782 | 960 | inactive |
| CG3036 | SID104180052 | 1.46e5 | 6205 | inactive |
| CG3036 | SID104180354 | 1.07e5 | 3987 | inactive |
| rl (rolled) | SID104187625 | 91989 | 4083 | inactive |
| rl (rolled) | SID104200534 | 1.31e5 | 6619 | inactive |
| Ilp5 (Insulin-like peptide 5) | SID104188790 | 1.41e5 | 4940 | inactive |
| vls (valois) | SID104181893 | 89791 | 4034 | inactive |
| Chchd3 (Coiled-coil-helix-coiled-coil-helix domain containing 3) | SID104196773 | 78751 | 6341 | inactive |
| phtf | SID104184815 | 83292 | 3830 | inactive |
| Dscam1 (Down syndrome cell adhesion molecule 1) | SID104184839 | 1.34e5 | 6175 | inactive |
| Dscam1 (Down syndrome cell adhesion molecule 1) | SID104184840 | 1.44e5 | 6237 | inactive |
| Dscam1 (Down syndrome cell adhesion molecule 1) | SID104187199 | 1.23e5 | 4691 | inactive |
| Nup44A (Nucleoporin at 44A) | SID104187040 | 2732 | 201 | inactive |
| Sptr (Sepiapterin reductase) | SID104198511 | 8126 | 848 | inactive |
| CG14453 | SID104191502 | 1.33e5 | 7281 | inactive |
| CG5003 | SID104195486 | 1682 | 940 | inactive |
| CG6678 | SID104195884 | 74597 | 3316 | inactive |
| cdi (center divider) | SID104196714 | 74147 | 4180 | inactive |
| dyl (dusky-like) | SID104188258 | 63760 | 3792 | inactive |
| dyl (dusky-like) | SID104188259 | 85496 | 3454 | inactive |
| CG32507 | SID104200213 | 78304 | 2457 | inactive |
| CG16790 | SID104194948 | 1.39e5 | 6136 | inactive |
| CG30431 | SID104184694 | 78000 | 3734 | inactive |
| CG30431 | SID104184696 | 1.05e5 | 4329 | inactive |
| CG14015 | SID104182138 | 1.58e5 | 4716 | inactive |
| Start1 | SID104184176 | 82098 | 3324 | inactive |
| CG33109 | SID104196325 | 1.11e5 | 5867 | inactive |
| CG6873 | SID104199806 | 1.23e5 | 6278 | inactive |
| CCT5 (Chaperonin containing TCP1 subunit 5) | SID104187149 | 2613 | 235 | inactive |

12 of these entries in another layout.
target	PubChem SID	E2F firefly, rep 1	Renilla normaliser, rep 1	Call
Ilp8 (Insulin-like peptide 8)	SID104189868	1.51e5	7213	inactive
hiw (highwire)	SID104200130	1.16e5	6689	inactive
hiw (highwire)	SID104200131	1.31e5	6656	inactive
p130CAS	SID104187654	1.43e5	4040	inactive
p130CAS	SID104188049	65782	3852	inactive
COX5BL (Cytochrome c oxidase subunit 5B-like)	SID104181915	1.58e5	5693	inactive
Spn27A (Serpin 27A)	SID104183400	1.56e5	5206	inactive
Spn100A (Serpin 100A)	SID104194388	1782	960	inactive
CG3036	SID104180052	1.46e5	6205	inactive
CG3036	SID104180354	1.07e5	3987	inactive
rl (rolled)	SID104187625	91989	4083	inactive
rl (rolled)	SID104200534	1.31e5	6619	inactive

Additional entries follow.
| target | PubChem SID | E2F firefly, rep 1 | Renilla normaliser, rep 1 | Call |
| --- | --- | --- | --- | --- |
| CG7739 | SID104190702 | 1.61e5 | 7186 | inactive |
| eIF2Balpha (eukaryotic translation initiation factor 2B subunit alpha) | SID104196124 | 1707 | 964 | inactive |
| CG7556 | SID104199844 | 1.36e5 | 5091 | inactive |
| CG32512 | SID104200311 | 1.38e5 | 7023 | inactive |
| CG32512 | SID104200343 | 1.09e5 | 6728 | inactive |
| CG7906 | SID104190720 | 85018 | 3272 | inactive |
| PAN2 (Poly(A)-binding protein-dependent poly(A) ribonuclease 2) | SID104186907 | 3549 | 133 | inactive |
| link | SID104186160 | 77959 | 4412 | inactive |
| CG8726 | SID104187042 | 2730 | 227 | inactive |
| CG8507 | SID104196227 | 1.30e5 | 6392 | inactive |
| CG13868 | SID104186219 | 71420 | 3228 | inactive |
| CR18275 + CG13373 | SID104197692 | 42759 | 4219 | inactive |
| CG12278 | SID104194286 | 96470 | 6917 | inactive |
| SelT (Selenoprotein T) | SID104182524 | 89267 | 4295 | inactive |
| Nrg (Neuroglian) | SID104197365 | 92577 | 2621 | inactive |
| Nrg (Neuroglian) | SID104198480 | 7418 | 728 | inactive |
| CG16812 | SID104182311 | 81653 | 3397 | inactive |
| Dpy-30L1 (Dpy-30-like 1) | SID104182751 | 1.55e5 | 5394 | inactive |
| Fdx2 (Ferredoxin 2) | SID104188098 | 83241 | 3866 | inactive |
| CG4781 | SID104184280 | 1.12e5 | 4146 | inactive |
| CG17202 | SID104194986 | 1.19e5 | 5448 | inactive |
| CG12134 | SID104185901 | 1.35e5 | 4378 | inactive |
| Ccp84Ae | SID104192382 | 1.30e5 | 5723 | inactive |
| Ca-beta (Ca2+-channel-protein-beta-subunit) | SID104182198 | 1.62e5 | 5463 | inactive |
| Ca-beta (Ca2+-channel-protein-beta-subunit) | SID104182199 | 1.53e5 | 5735 | inactive |
| Ca-beta (Ca2+-channel-protein-beta-subunit) | SID104183077 | 1.51e5 | 5199 | inactive |
| CG30375 | SID104186626 | 1.63e5 | 5775 | inactive |
| CG32040 | SID104188773 | 1.39e5 | 5281 | inactive |
| CG14926 | SID104182201 | 1.57e5 | 5742 | inactive |
| kl-5 (retired record) | SID104200499 | 1.42e5 | 6552 | inactive |
| kl-5 (retired record) | SID104200528 | 83190 | 3179 | inactive |
| kl-5 (retired record) | SID104200565 | 79121 | 2743 | inactive |
| kl-5 (retired record) | SID104200953 | 73644 | 8293 | inactive |
